Consider 1 substance from paper PMC8120472.

By UniProt entry, the sequences of proteins in these tests, tags left out.
UniProt P30904: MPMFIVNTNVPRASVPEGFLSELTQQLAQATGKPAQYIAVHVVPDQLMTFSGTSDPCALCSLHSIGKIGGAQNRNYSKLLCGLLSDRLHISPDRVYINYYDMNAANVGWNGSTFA

Results are given in words; binding and its absence hold for the method and conditions named. Binding seen in cells or lysates may run through a third protein. Some entries that bind do so weakly or less than the wild type.

This test concerns the target T1, CD74 membrane receptor (rat (endogenous in primary joint capsule fibroblasts)) (UniProt P10247).
T1 sequence: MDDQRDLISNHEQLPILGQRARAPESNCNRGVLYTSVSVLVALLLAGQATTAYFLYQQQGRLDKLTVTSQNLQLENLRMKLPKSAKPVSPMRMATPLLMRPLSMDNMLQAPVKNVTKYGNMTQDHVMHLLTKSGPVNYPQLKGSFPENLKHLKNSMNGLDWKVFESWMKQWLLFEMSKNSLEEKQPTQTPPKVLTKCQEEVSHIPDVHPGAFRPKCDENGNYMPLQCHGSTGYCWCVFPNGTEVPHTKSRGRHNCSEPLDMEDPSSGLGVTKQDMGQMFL
Nature of the test: co-IP; lysates (500 μg) of rat primary joint capsule fibroblasts treated with 2 μg/mL MIF for 24 h; precleared with protein A plus G-Sepharose, incubated with anti-MIF or anti-CD74 antibody at 4 °C, immunoblot with anti-MIF or anti-CD74.

For “Macrophage migration inhibitory factor (from UniProt P30904 1-115) (ligand)”, the binding result was “binds”.
